Read-outs that look alike come from different tables or passages of the source.
Legend:
[1] = tested on: AT4 receptor; assay type: binding, cow; conditions: adrenal medulla
[2] = tested on: AT4 receptor; assay type: binding, cat; conditions: whole adrenal

For `CC[C@H](C)[C@H](NC(=O)[C@H](Cc1ccc(O)cc1)NC(=O)[C@@H](N)C(C)C)C(=O)N[C@@H](Cc1cnc[nH]1)C(=O)N1CCC[C@H]1C(=O)N[C@@H](Cc1ccccc1)C(=O)O` [AIV, Val1 Tyr2 Ile3 His4 Pro5 Phe6], the “125I-AIV binding (Bmax in Table 1)” value [1] was 397.3 fmol/mg/prot, the “125I-AIV binding (Bmax in Table 1)” value ([1]; listed as 125I-AIV) was 397.3 ± 53.6 fmol/mg/prot and the “125I-AIV binding (Bmax in Table 1)” value [2] was 199.6 fmol/mg/prot. The “125I-AIV binding (Bmax in Table 1)” value ([2]; listed as 125I-AIV) was 199.6 ± 19.7 fmol/mg/prot.

Reference: patent publication US5854388A, “Angiotensin IV peptides and receptor” (Washington State University Research Foundation, priority 1994, dated 1998)
